Our source for the activity change, negative = inhibition values is PubChem BioAssay AID463206 (Broad Institute, 2010).

The other results are listed elsewhere or left out. Measured potencies and affinities stand elsewhere. Where no call is shown, the source marks the result inconclusive.

This test is described as follows: suppression of cytokine-driven beta-cell apoptosis – INS-1E rat cells, luminescence, orthogonal assay for beta-cell apoptosis protection project, dose response (AID 463206). The settings on record: INS-1E cytokine-induced caspase-3/7, Caspase-Glo luminescence, 48 h; at 26 µM (top of the series) unless noted.
On to `CCN1/C(=C\C=C\C2=[N+](CC)c3ccccc3C2(C)C)C(C)(C)c2ccccc21`, for which the activity change, negative = inhibition was 51.8%.
`CC(C)(C)c1ccc(CSc2cnn(C(C)(C)C)c(=O)c2Cl)cc1` came in with an activity change, negative = inhibition of 48%.
The figure for `COc1cc2c(cc1OC)[C@@H]1C(=O)c3ccc4c(c3O[C@@H]1CO2)C[C@H](C(C)C)O4` is 51.3% [at 12 µM].
